Reference: patent publication US20250290928A1, “METHOD, KIT AND DEVICE FOR DETECTING EXTRACELLULAR VESICLES” (priority 2022, published 2025)

Test system: MMP14 in the HT1080 culture supernatants and the culture medium samples
Experiment: Digital detection of MMP14 active component in HT1080 culture supernatants, culture media and recovered liquids in wells
Type: biochemical, Human
Conditions: HT1080 culture Absent
Protocol: In addition, for detection of MMP14 activity, 1 mM Custom #1 was diluted with the buffer (4) to prepare a MMP14 detection solution containing 5 μM Custom #1 and 2 μM Alexa Fluor 647.

“[5-FAM]GRIGFLRTAK(TQ2)[OH] (5-FAM, TQ2 quencher, free acid) [Custom #1]” was tested, and the “MMP14 active component concentration” value (Experiment condition (III): FBS culture medium, Reaction 4 hr) was 2.635e+11 mL⁻¹, the “MMP14 active component concentration” value (Experiment condition (III): FBS culture medium, Reaction 24 hr) was 2.744e+11 mL⁻¹ and the “MMP14 active component concentration” value (Experiment condition (IX): MEM culture medium, Reaction 4 hr) was 4.3e+07 mL⁻¹. The “MMP14 active component concentration” value (Experiment condition (IX): MEM culture medium, Reaction 24 hr) was 5.7e+07 mL⁻¹, the “MMP14 active component concentration” value (Experiment condition (VI): Exo-FBS culture medium, Reaction 4 hr) was 2.487e+11 mL⁻¹ and the “MMP14 active component concentration” value (Experiment condition (VI): Exo-FBS culture medium, Reaction 24 hr) was 2.407e+11 mL⁻¹.
